Source: PubChem BioAssay AID652243 (Drosophila RNAi Screening Center, 2013)
The deposit covers about 24,000 reagents; shown is an unselected part of those with a known target gene and a result. In the full data, 246 (1%) are marked active. 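Plates not normalised; calls are printed but the firefly/Renilla ratio behind them is not deposited; fold cut for lowering reported inconsistently.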 Raw values are not corrected between plates. Names joined by + are all predicted targets of the reagent. No sequences are given here. Not stated in the record: the amount of reagent.

Purpose: 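Fly regulators of androgen-dependent reporter output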 (primary screen)
Cells: Drosophila S2R+ cells
Reagents: long dsRNA against Drosophila genes
Time to read-out: 72 h (48 h, then 24 h hormone)
Challenge: synthetic androgen R1881 at 10 nM for 24 h
Detection: 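Per-well raw luminescence of the androgen-driven firefly reporter and of the Renilla control, two replicates each, without normalisation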
Scale: firefly reporter light: higher = more light from androgen-responsive reporter; Renilla control light: higher = more constitutive control signal (cell number, transfection)
Active means: 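Hit when the log firefly-to-Renilla ratio dropped or increased by a fixed fold versus the mean of GFP or LacZ controls across duplicate plates; lowering cut given as 1.5 and as 3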
Calls: active = hit: reporter lowered or raised; inactive = no hit

no.	gene	amplicon	firefly reporter light, replicate 1	firefly reporter light, replicate 2	Renilla control light, replicate 1	Renilla control light, replicate 2	Outcome
1	CG14153 (GeneID 39208)	DRSC10155	3.26e5	2.59e5	3.91e6	3.32e6	inactive
2	CG14153 (GeneID 39208)	DRSC22595	8.47e5	7.05e5	1.07e6	1.31e6	inactive
3	Boot (GeneID 35919)	DRSC06412	3.44e5	3.79e5	1.27e6	1.34e6	inactive
4	CG10898 (GeneID 41384)	DRSC14279	47831	55254	3.13e5	4.56e5	inactive
5	tplus3a + tplus3b	DRSC03687	1.40e5	1.93e5	5.65e5	6.82e5	inactive
6	Ttd14 (GeneID 37119)	DRSC06632	4.72e5	5.15e5	8.51e5	6.70e5	inactive
7	Ttd14 (GeneID 37119)	DRSC06942	1.64e5	2.05e5	1.57e6	2.15e6	inactive
8	NimA (GeneID 318930)	DRSC01353	2.23e5	2.74e5	5.99e5	2.95e5	inactive
9	NimA (GeneID 318930)	DRSC22170	7.42e5	5.34e5	2.36e6	2.45e6	inactive
10	NimA (GeneID 318930)	DRSC28421	2.13e5	5.62e5	5.61e5	1.22e6	inactive
11	NimA (GeneID 318930)	DRSC28852	5.35e5	4.54e5	2.35e6	2.22e6	inactive
12	CG1674 (GeneID 43780)	DRSC17142	2.79e5	3.00e5	4.36e6	2.96e6	inactive
13	CG1674 (GeneID 43780)	DRSC29516	2.06e5	3.20e5	7.50e5	7.50e5	inactive
14	CG7903 (GeneID 43554)	DRSC16338	2.50e5	2.48e5	1.86e6	3.10e6	inactive
15	CG7903 (GeneID 43554)	DRSC29953	4.93e5	5.09e5	1.32e6	1.27e6	inactive
16	CG7546 (GeneID 38844)	DRSC08885	2.46e5	1.72e5	5.45e5	5.77e5	inactive
17	CG7546 (GeneID 38844)	DRSC10871	2.56e5	2.73e5	2.39e6	2.30e6	inactive
18	CG7546 (GeneID 38844)	DRSC22148	8.49e5	9.40e5	2.07e6	1.91e6	inactive
19	CG13084 (GeneID 35229)	DRSC02188	97789	1.34e5	1.18e6	1.24e6	inactive
20	CG32816 (GeneID 318225)	DRSC17337	9.68e5	4.68e5	1.19e6	5.26e5	inactive
21	CG8520 (GeneID 36357)	DRSC07206	9.51e5	5.83e5	1.64e6	1.39e6	inactive
22	CG10862 (GeneID 38437)	DRSC08170	85854	98390	1.14e6	1.18e6	inactive
23	Actn3 (GeneID 44964)	DRSC14106	1.76e5	1.93e5	2.07e6	3.14e6	inactive
24	CG18428 (GeneID 42857)	DRSC15326	1.34e5	1.37e5	2.57e6	2.54e6	inactive
25	CG18428 (GeneID 42857)	DRSC29185	4.59e5	5.03e5	1.19e6	1.16e6	inactive
26	TMEM216 (GeneID 41035)	DRSC16378	1.22e5	1.24e5	2.16e6	2.45e6	inactive
27	TMEM216 (GeneID 41035)	DRSC25583	5.69e5	6.67e5	8.25e5	8.91e5	inactive
28	CG13428 (GeneID 37317)	DRSC06390	1.25e5	1.21e5	2.21e6	1.68e6	inactive
29	orb (GeneID 42752)	DRSC23148	6.41e5	7.56e5	1.13e6	1.41e6	inactive
30	GlyRS (GeneID 39644)	DRSC10711	9.01e5	1.06e6	1.11e6	1.68e6	inactive
31	CG11052 (GeneID 49997)	DRSC14288	96077	90882	1.72e6	1.69e6	inactive
32	CG31730 (GeneID 318920)	DRSC01308	2.83e5	2.34e5	6.25e5	5.21e5	inactive
33	Cyp6a22 (GeneID 49847)	DRSC07382	1.04e6	9.91e5	2.27e6	2.03e6	inactive
34	Cyp6a22 (GeneID 49847)	DRSC24011	3.73e5	3.18e5	4.91e5	4.28e5	inactive
35	Cog1 (GeneID 41479)	DRSC15661	47040	53453	4.71e5	3.38e5	inactive
36	Notum (GeneID 39751)	DRSC09959	1.84e5	1.62e5	1.61e6	1.13e6	inactive
37	CG13700 (GeneID 40013)	DRSC10049	1.97e5	1.07e5	2.00e6	1.88e6	inactive
38	CG13700 (GeneID 40013)	DRSC29871	9.48e5	8.65e5	1.22e6	1.08e6	inactive
39	CG17698 (GeneID 4379919)	DRSC11907	1.25e5	1.72e5	2.67e6	1.88e6	inactive
40	CG17698 (GeneID 4379919)	DRSC36965					inactive
41	Sap130 (GeneID 39455)	DRSC09680	1.11e5	92620	1.72e6	1.37e6	inactive
42	Sap130 (GeneID 39455)	DRSC28079	2.79e5	3.27e5	1.68e6	1.56e6	active
43	Pkn (GeneID 35950)	DRSC06810	3.09e5	2.79e5	2.16e6	2.13e6	inactive
44	Pkn (GeneID 35950)	DRSC25936	4.58e5	4.87e5	9.10e5	9.52e5	inactive
45	Pkn (GeneID 35950)	DRSC37055					inactive
46	Rab9Db + Rab9Fa	DRSC18445	4.59e5	4.60e5	3.72e6	3.28e6	inactive
47	CG15040 (GeneID 32848)	DRSC19616	7.62e5	7.48e5	3.48e6	3.87e6	inactive
48	CG15040 (GeneID 32848)	DRSC21482	5.20e5	5.41e5	8.69e5	9.13e5	inactive
49	CG15040 (GeneID 32848)	DRSC29466	4.93e5	3.07e5	9.83e5	9.83e5	inactive
50	mtt (GeneID 35832)	DRSC05106	78546	1.34e5	4.82e5	5.18e5	inactive
51	mtt (GeneID 35832)	DRSC05107	80812	1.26e5	2.05e5	3.84e5	inactive
52	mtt (GeneID 35832)	DRSC06753	4.27e5	2.85e5	2.68e6	1.90e6	inactive
53	mtt (GeneID 35832)	DRSC07235	2.40e5	3.03e5	2.08e6	2.16e6	inactive
54	CG33217 (GeneID 2768951)	DRSC22907	4.11e5	8.60e5	1.05e6	2.25e6	inactive
55	CG33217 (GeneID 2768951)	DRSC28139	4.48e5	4.26e5	1.79e6	1.44e6	inactive
56	CG12929 (GeneID 35987)	DRSC06242	5.36e5	3.25e5	3.02e6	2.29e6	inactive
57	sncRNA:158 (GeneID 3772042)	DRSC37905	6.72e5	7.04e5	1.46e6	1.36e6	inactive
58	CG18766 (GeneID 59150)	DRSC15936	71510	90245	6.80e5	7.10e5	inactive
59	CG18766 (GeneID 59150)	DRSC25739	1.27e6	6.61e5	1.36e6	8.86e5	inactive
